# According to the supplement of paper PMC8728848:
# The list shows a part of the results.
# Columns and labels:
# Test in all cases: glycan array binding signal (z-score within array); higher = stronger binding
# Details in all cases: glycan notation: IUPAC condensed, linker removed
# [1] = molecular target: Fuc(a1-2)Gal(b1-4)GlcNAc(b1-3)Gal(b1-4)GlcNAc(b1-3)Gal(b1-4)GlcNAc
# Summary of the method: (§1)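 Glycan array data came from 3228 arrays in the Consortium for Functional Glycomics database, and only arrays with an available protein sequence were kept. Glycan names were put into IUPAC-condensed notation, and columns mapping to the same glycan were averaged. The binding signal is a within-array Z-score, averaged across arrays of one protein sequence run at different concentrations or buffers and across linkers. A negative Z-score can be read as non-binding.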
# [2] = molecular target: Fuc(a1-2)Gal(b1-4)GlcNAc(b1-3)GalNAc
# Summary of the method: as §1
# [3] = molecular target: Fuc(a1-2)Gal(b1-4)GlcNAc(b1-3)[Fuc(a1-2)Gal(b1-4)GlcNAc(b1-6)]GalNAc
# Summary of the method: as §1
# [4] = molecular target: Fuc(a1-2)Gal(b1-4)GlcNAc(b1-3)[Fuc(a1-3)[Gal(b1-4)]GlcNAc(b1-6)]Gal(b1-4)Glc
# Summary of the method: as §1
# [5] = molecular target: Fuc(a1-2)Gal(b1-4)GlcNAc(b1-6)GalNAc
# Summary of the method: as §1
# [6] = molecular target: Fuc(a1-2)Gal(b1-4)GlcNAc6S
# Summary of the method: as §1
# [7] = molecular target: Fuc(a1-2)Gal(b1-4)[Fuc(a1-3)]GlcNAc
# Summary of the method: as §1
# [8] = molecular target: Fuc(a1-2)Gal(b1-4)[Fuc(a1-3)]GlcNAc(b1-2)Man(a1-3)[Fuc(a1-2)Gal(b1-4)[Fuc(a1-3)]GlcNAc(b1-2)Man(a1-6)]Man(b1-4)GlcNAc(b1-4)[Fuc(a1-6)]GlcNAc
# Summary of the method: as §1
# [9] = molecular target: Fuc(a1-2)Gal(b1-4)[Fuc(a1-3)]GlcNAc(b1-2)[Fuc(a1-2)Gal(b1-4)[Fuc(a1-3)]GlcNAc(b1-4)]Man(a1-3)[Fuc(a1-2)Gal(b1-4)[Fuc(a1-3)]GlcNAc(b1-2)Man(a1-6)]Man(b1-4)GlcNAc(b1-4)GlcNAc
# Summary of the method: as §1
# [10] = molecular target: Fuc(a1-2)Gal(b1-4)[Fuc(a1-3)]GlcNAc(b1-3)Gal(b1-4)[Fuc(a1-3)]GlcNAc
# Summary of the method: as §1
# [11] = molecular target: Fuc(a1-2)Gal(b1-4)[Fuc(a1-3)]GlcNAc(b1-3)Gal(b1-4)[Fuc(a1-3)]GlcNAc(b1-3)Gal(b1-4)[Fuc(a1-3)]GlcNAc
# Summary of the method: as §1
# [12] = molecular target: Fuc(a1-2)Gal(b1-4)[Fuc(a1-3)]GlcNAc(b1-3)GalNAc
# Summary of the method: as §1
# [13] = molecular target: Fuc(a1-2)Gal(b1-4)[Fuc(a1-3)]GlcNAc(b1-3)[Neu5Ac(a2-6)Gal(b1-4)GlcNAc(b1-6)]Gal(b1-4)Glc
# Summary of the method: as §1
# [14] = molecular target: Fuc(a1-2)Gal3S(b1-4)GlcNAc
# Summary of the method: as §1
# [15] = molecular target: Fuc(a1-2)Gal6S(b1-3)GlcNAc
# Summary of the method: as §1
# [16] = molecular target: Fuc(a1-2)Gal6S(b1-3)GlcNAc6S
# Summary of the method: as §1
# [17] = molecular target: Fuc(a1-2)Gal6S(b1-4)Glc
# Summary of the method: as §1
# [18] = molecular target: Fuc(a1-2)Gal6S(b1-4)Glc6S
# Summary of the method: as §1
# [19] = molecular target: Fuc(a1-2)[Gal(a1-3)]Gal
# Summary of the method: as §1
# [20] = molecular target: Fuc(a1-2)[Gal(a1-3)]Gal(b1-3)GalNAc
# Summary of the method: as §1
# [21] = molecular target: Fuc(a1-2)[Gal(a1-3)]Gal(b1-3)GalNAc(b1-3)Gal(a1-4)Gal(b1-4)Glc
# Summary of the method: as §1
# [22] = molecular target: Fuc(a1-2)[Gal(a1-3)]Gal(b1-3)GlcNAc
# Summary of the method: as §1
# [23] = molecular target: Fuc(a1-2)[Gal(a1-3)]Gal(b1-3)GlcNAc(b1-2)Man(a1-3)[Fuc(a1-2)[Gal(a1-3)]Gal(b1-3)GlcNAc(b1-2)Man(a1-6)]Man(b1-4)GlcNAc(b1-4)GlcNAc
# Summary of the method: as §1
# [24] = molecular target: Fuc(a1-2)[Gal(a1-3)]Gal(b1-3)GlcNAc(b1-2)Man(a1-3)[Fuc(a1-2)[Gal(a1-3)]Gal(b1-3)GlcNAc(b1-2)Man(a1-6)]Man(b1-4)GlcNAc(b1-4)[Fuc(a1-6)]GlcNAc
# Summary of the method: as §1
# [25] = molecular target: Fuc(a1-2)[Gal(a1-3)]Gal(b1-3)GlcNAc(b1-3)GalNAc
# Summary of the method: as §1
# [26] = molecular target: Fuc(a1-2)[Gal(a1-3)]Gal(b1-3)GlcNAc(b1-6)GalNAc
# Summary of the method: as §1
# [27] = molecular target: Fuc(a1-2)[Gal(a1-3)]Gal(b1-4)Glc
# Summary of the method: as §1
# [28] = molecular target: Fuc(a1-2)[Gal(a1-3)]Gal(b1-4)GlcNAc
# Summary of the method: as §1
# [29] = molecular target: Fuc(a1-2)[Gal(a1-3)]Gal(b1-4)GlcNAc(b1-2)Man
# Summary of the method: as §1
# [30] = molecular target: Fuc(a1-2)[Gal(a1-3)]Gal(b1-4)GlcNAc(b1-2)Man(a1-3)[Fuc(a1-2)[Gal(a1-3)]Gal(b1-4)GlcNAc(b1-2)Man(a1-6)]Man(b1-4)GlcNAc(b1-4)GlcNAc
# Summary of the method: as §1
binder,measurement,setting,value
Aap brpt (Staphylococcus epidermidis) (protein) VDGDPITSTEEIPFDKKREFDPNLAPGTEKVVQKGEPGTKTITTPTTKNPLTGEKVGEGEPTEKITKQPVDEIVHYGGEEIKTGHKDEFDPNAPKGSQTTQPGKPGVKNPDTGEVVTPPVDDVTKYGPVDGDPITSTEEIPFDKKREFDPNLAPGTEKVVQKGEPGTKTITTPTTKNPLTGEKVGEGEPTEKITKQPVDEIVHYGGEEIKPGHKDEFDPNAPKGSQEDVPGKPGVKNPDTGEVVTPPVDDVTKYGPVDGDSITSTEEIPFDKKREFDPNLAPGTEKVVQKGEPGTKTITTPTTKNPLTGEKVGEGEPTEKITKQPVDEIVHYGGEQIPQGHKDEFDPNAPVDSKTEVPGKPGVKNPDTGEVVTPPVDDVTKYGPVDGDSITSTEEIPFDKKREFDPNLAPGTEKVVQKGEPGTKTITTPTTKNPLTGEKVGEGKSTEKVTKQPVDEIVEYGPTK,glycan array binding signal (z-score),[1],0.152
same,glycan array binding signal (z-score),[2],-0.637
same,glycan array binding signal (z-score),[3],0.069
same,glycan array binding signal (z-score),[4],0.44
same,glycan array binding signal (z-score),[5],0.068
same,glycan array binding signal (z-score),[6],0.538
same,glycan array binding signal (z-score),[7],1.5
same,glycan array binding signal (z-score),[8],-2.06
same,glycan array binding signal (z-score),[9],1.57
same,glycan array binding signal (z-score),[10],-0.951
same,glycan array binding signal (z-score),[11],0.423
same,glycan array binding signal (z-score),[12],0.691
same,glycan array binding signal (z-score),[13],-1.18
same,glycan array binding signal (z-score),[14],0.096
same,glycan array binding signal (z-score),[15],-0.658
same,glycan array binding signal (z-score),[16],0.332
same,glycan array binding signal (z-score),[17],0.449
same,glycan array binding signal (z-score),[18],0.217
same,glycan array binding signal (z-score),[19],-0.899
same,glycan array binding signal (z-score),[20],1.31
same,glycan array binding signal (z-score),[21],0.94
same,glycan array binding signal (z-score),[22],0.297
same,glycan array binding signal (z-score),[23],0.588
same,glycan array binding signal (z-score),[24],0.53
same,glycan array binding signal (z-score),[25],-0.07
same,glycan array binding signal (z-score),[26],-1.34
same,glycan array binding signal (z-score),[27],-0.658
same,glycan array binding signal (z-score),[28],0.353
same,glycan array binding signal (z-score),[29],1.05
same,glycan array binding signal (z-score),[30],-0.639

# Part of the list above, as tab-separated lines:
binder	measurement	setting	value
Aap brpt (Staphylococcus epidermidis) (protein) VDGDPITSTEEIPFDKKREFDPNLAPGTEKVVQKGEPGTKTITTPTTKNPLTGEKVGEGEPTEKITKQPVDEIVHYGGEEIKTGHKDEFDPNAPKGSQTTQPGKPGVKNPDTGEVVTPPVDDVTKYGPVDGDPITSTEEIPFDKKREFDPNLAPGTEKVVQKGEPGTKTITTPTTKNPLTGEKVGEGEPTEKITKQPVDEIVHYGGEEIKPGHKDEFDPNAPKGSQEDVPGKPGVKNPDTGEVVTPPVDDVTKYGPVDGDSITSTEEIPFDKKREFDPNLAPGTEKVVQKGEPGTKTITTPTTKNPLTGEKVGEGEPTEKITKQPVDEIVHYGGEQIPQGHKDEFDPNAPVDSKTEVPGKPGVKNPDTGEVVTPPVDDVTKYGPVDGDSITSTEEIPFDKKREFDPNLAPGTEKVVQKGEPGTKTITTPTTKNPLTGEKVGEGKSTEKVTKQPVDEIVEYGPTK	glycan array binding signal (z-score)	[11]	0.423
same	glycan array binding signal (z-score)	[12]	0.691
